Test results reported in paper doi:10.1101/2022.08.31.505651.
Results are given in words; binding and its absence hold for the method and conditions named. For part of these data: Binding seen in cells or lysates may run through a third protein. Some results given as binding are weak or reduced against the parent protein; the word gives no strength. For part of these data: Where a sequence is shown, tags or fusion partners need not be part of it.

Tests used:
[1] = target: T1, NEK1 D1277A re-expressed in NEK1-KO ARPE-19 cells (human) (UniProt Q96PY6); test: co-IP
T1 sequence: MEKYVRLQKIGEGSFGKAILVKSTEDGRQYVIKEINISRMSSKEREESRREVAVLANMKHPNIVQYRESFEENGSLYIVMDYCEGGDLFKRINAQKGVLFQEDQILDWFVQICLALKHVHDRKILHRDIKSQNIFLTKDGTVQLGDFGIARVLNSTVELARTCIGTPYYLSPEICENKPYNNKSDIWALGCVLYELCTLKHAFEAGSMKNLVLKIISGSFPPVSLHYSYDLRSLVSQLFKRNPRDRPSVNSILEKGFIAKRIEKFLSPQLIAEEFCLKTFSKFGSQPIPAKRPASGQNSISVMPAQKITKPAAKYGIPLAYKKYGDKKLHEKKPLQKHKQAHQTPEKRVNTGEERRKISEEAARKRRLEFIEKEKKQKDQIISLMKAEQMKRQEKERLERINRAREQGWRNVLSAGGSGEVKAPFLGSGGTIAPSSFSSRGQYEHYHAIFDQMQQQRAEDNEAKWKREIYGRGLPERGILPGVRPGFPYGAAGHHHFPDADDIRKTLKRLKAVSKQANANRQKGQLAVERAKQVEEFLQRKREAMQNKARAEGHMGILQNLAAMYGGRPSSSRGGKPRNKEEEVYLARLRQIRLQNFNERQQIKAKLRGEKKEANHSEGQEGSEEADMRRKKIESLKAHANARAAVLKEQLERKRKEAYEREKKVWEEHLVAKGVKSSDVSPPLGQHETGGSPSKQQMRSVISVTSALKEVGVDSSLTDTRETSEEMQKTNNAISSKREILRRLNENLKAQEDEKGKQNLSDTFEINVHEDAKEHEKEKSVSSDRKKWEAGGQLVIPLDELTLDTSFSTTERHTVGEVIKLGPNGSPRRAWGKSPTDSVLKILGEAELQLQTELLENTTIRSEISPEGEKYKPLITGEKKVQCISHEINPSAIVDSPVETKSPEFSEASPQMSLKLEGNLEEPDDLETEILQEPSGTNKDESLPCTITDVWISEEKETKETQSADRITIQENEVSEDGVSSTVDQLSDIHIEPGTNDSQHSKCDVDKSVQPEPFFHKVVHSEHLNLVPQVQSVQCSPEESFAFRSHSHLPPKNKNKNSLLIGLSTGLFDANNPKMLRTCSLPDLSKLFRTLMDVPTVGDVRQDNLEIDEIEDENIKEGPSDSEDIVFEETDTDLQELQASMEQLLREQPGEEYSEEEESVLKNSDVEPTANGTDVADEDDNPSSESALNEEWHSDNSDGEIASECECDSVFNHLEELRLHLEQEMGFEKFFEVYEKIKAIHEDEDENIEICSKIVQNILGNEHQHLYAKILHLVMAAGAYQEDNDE

[2] = target: T2, NEK1 (endogenous) (human (endogenous in ARPE-19, HeLa, HEK293, U2OS)) (UniProt Q96PY6); test: co-IP
T2 sequence: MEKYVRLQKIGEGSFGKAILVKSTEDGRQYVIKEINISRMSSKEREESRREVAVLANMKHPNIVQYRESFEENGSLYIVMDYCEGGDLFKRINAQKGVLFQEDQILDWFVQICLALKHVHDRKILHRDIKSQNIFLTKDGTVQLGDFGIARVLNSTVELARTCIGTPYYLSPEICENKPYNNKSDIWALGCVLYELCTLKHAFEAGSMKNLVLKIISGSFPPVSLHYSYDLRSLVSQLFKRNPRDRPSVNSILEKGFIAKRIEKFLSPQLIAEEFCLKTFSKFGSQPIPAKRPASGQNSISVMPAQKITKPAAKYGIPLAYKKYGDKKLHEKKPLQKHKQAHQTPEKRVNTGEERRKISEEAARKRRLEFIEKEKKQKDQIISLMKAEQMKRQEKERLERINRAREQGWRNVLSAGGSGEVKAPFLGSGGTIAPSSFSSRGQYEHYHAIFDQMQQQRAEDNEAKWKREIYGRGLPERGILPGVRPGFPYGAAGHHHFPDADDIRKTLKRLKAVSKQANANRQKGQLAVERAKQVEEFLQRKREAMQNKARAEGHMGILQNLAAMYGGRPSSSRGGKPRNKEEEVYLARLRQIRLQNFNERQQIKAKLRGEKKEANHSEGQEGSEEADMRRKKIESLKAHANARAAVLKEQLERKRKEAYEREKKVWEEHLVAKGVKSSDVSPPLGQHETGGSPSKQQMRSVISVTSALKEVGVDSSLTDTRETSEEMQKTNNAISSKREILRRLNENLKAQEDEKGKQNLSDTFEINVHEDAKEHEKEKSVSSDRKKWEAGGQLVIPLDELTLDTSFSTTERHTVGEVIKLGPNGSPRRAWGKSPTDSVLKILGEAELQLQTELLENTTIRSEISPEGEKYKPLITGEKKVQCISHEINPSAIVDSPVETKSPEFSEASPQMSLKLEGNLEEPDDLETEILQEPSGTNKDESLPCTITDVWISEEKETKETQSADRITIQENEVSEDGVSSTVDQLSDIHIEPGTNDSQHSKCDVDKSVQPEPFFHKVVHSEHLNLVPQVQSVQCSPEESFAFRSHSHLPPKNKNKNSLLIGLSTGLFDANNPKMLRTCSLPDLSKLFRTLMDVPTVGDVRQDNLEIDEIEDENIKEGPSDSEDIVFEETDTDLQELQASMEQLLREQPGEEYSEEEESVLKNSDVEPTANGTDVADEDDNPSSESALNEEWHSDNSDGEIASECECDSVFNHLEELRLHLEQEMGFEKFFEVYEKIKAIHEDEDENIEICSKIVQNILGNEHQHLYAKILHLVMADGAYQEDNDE

[3] = target: T2, NEK1 (endogenous) (human (endogenous in ARPE-19, HeLa, HEK293, U2OS)); test: co-IP; remark: listed apart in the source
[4] = target: T2, NEK1 (endogenous) (human (endogenous in ARPE-19, HeLa, HEK293, U2OS)); test: co-IP; remark: listed apart in the source
[5] = target: T2, NEK1 (endogenous) (human (endogenous in ARPE-19, HeLa, HEK293, U2OS)); test: SEC
[6] = target: T3, 3xFLAG-NEK1 aa 1160-1286 (NEK1-CID) (human) (UniProt Q96PY6); test: co-IP
T3 sequence: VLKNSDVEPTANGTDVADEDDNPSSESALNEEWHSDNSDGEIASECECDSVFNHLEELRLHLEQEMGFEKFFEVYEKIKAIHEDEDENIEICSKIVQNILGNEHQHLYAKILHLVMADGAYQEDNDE

[7] = target: T4, 3xFLAG-NEK1 aa 760-1286 (C-terminal acidic domain) (human) (UniProt Q96PY6); test: co-IP
T4 sequence: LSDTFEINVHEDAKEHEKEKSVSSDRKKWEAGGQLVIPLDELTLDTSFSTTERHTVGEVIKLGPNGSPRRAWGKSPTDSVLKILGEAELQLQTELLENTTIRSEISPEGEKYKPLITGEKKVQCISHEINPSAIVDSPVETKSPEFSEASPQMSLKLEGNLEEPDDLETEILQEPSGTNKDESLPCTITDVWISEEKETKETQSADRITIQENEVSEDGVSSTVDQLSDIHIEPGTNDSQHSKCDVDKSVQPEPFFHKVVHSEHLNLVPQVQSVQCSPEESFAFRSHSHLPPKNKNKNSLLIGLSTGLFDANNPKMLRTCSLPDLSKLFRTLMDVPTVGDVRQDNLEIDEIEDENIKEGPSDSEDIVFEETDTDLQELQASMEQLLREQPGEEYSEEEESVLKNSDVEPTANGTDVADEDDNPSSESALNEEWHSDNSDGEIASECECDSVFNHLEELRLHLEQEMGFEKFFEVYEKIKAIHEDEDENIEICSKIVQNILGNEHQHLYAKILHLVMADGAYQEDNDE

[8] = target: T5, 3xFLAG-NEK1 aa 1-1160 (deletion of the CID) (human) (UniProt Q96PY6); test: co-IP
T5 sequence: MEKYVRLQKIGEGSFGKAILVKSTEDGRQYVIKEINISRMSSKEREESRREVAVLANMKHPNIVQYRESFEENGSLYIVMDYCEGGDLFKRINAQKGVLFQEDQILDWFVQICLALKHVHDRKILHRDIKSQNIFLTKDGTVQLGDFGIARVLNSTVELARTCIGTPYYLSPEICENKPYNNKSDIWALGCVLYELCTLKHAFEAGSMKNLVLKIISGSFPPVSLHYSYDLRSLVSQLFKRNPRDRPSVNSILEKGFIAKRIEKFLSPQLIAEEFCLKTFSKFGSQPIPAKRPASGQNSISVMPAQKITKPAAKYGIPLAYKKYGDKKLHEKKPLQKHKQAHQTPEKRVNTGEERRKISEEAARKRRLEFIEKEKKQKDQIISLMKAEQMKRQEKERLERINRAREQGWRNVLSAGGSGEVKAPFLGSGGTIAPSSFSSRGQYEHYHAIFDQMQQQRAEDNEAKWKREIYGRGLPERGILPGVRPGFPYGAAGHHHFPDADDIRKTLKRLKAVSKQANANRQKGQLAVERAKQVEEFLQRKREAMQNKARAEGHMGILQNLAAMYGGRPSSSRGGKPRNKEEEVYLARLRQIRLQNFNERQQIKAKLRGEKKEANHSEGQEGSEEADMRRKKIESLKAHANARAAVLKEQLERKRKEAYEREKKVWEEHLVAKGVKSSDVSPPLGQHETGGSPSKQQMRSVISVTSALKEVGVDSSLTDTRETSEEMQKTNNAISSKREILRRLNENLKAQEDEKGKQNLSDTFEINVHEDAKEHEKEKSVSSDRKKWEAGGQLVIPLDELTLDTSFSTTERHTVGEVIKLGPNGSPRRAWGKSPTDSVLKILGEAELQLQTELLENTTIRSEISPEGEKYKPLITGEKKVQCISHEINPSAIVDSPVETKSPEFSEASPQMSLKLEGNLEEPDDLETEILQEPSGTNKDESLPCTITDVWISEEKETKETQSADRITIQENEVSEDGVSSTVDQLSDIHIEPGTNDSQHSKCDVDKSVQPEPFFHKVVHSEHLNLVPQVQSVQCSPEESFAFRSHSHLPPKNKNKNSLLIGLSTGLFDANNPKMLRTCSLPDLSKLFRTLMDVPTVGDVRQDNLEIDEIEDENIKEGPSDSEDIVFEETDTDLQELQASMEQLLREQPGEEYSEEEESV

[9] = target: T6, 3xFLAG-NEK1 full length (1-1286) (human) (UniProt Q96PY6); test: co-IP
T6 sequence: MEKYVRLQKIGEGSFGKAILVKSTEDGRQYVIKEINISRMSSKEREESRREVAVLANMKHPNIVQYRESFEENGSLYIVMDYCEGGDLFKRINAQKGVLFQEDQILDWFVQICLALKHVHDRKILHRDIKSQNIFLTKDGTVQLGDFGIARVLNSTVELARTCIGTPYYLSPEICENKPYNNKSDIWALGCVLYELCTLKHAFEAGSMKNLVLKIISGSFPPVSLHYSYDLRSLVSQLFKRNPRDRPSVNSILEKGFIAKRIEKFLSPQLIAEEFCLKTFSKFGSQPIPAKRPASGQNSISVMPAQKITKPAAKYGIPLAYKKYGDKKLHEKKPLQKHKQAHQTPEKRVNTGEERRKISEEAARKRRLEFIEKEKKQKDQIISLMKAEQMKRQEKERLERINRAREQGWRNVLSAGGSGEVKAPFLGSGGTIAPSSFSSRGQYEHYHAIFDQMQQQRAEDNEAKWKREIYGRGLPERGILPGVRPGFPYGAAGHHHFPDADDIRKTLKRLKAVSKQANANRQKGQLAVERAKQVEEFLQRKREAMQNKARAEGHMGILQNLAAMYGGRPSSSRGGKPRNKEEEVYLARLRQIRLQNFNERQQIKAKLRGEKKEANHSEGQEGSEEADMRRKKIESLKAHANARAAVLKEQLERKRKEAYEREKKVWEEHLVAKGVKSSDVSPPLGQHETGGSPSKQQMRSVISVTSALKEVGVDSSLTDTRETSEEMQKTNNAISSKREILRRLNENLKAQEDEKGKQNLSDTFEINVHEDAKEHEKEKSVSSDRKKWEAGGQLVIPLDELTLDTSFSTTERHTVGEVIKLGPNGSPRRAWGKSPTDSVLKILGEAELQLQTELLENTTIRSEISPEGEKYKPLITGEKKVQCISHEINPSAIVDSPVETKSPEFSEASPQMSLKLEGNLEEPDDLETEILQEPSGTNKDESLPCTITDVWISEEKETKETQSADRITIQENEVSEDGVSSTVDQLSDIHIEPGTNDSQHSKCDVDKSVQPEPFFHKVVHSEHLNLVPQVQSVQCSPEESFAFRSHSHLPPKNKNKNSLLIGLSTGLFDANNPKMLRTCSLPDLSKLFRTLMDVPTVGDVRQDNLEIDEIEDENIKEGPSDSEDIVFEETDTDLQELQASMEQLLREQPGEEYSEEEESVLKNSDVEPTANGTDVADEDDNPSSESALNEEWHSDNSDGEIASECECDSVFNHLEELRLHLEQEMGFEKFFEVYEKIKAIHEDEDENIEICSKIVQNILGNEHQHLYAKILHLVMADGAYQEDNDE

B1: C21ORF2 (endogenous) (protein, UniProt O43822-1 1-256)
chain: MKLTRKMVLTRAKASELHSVRKLNCWGSRLTDISICQEMPSLEVITLSVNSISTLEPVSRCQRLSELYLRRNRIPSLAELFYLKGLPRLRVLWLAENPCCGTSPHRYRMTVLRTLPRLQKLDNQAVTEEELSRALSEGEEITAAPEREGTGHGGPKLCCTLSSLSSAAETGRDPLDSEEEATSGAQDERGLKPPSRGQFPSLSARDASSSHRGRNVLTAILLLLRELDAEGLEAVQQTVGSRLQALRGEEVQEHAE
binding [1]: no binding
binding [2]: binds
binding [3]: binds
binding [4]: binds
binding [5]: binds

B2: GFP-C21ORF2 (protein, UniProt O43822-1 1-256)
chain: MKLTRKMVLTRAKASELHSVRKLNCWGSRLTDISICQEMPSLEVITLSVNSISTLEPVSRCQRLSELYLRRNRIPSLAELFYLKGLPRLRVLWLAENPCCGTSPHRYRMTVLRTLPRLQKLDNQAVTEEELSRALSEGEEITAAPEREGTGHGGPKLCCTLSSLSSAAETGRDPLDSEEEATSGAQDERGLKPPSRGQFPSLSARDASSSHRGRNVLTAILLLLRELDAEGLEAVQQTVGSRLQALRGEEVQEHAE
binding [6]: binds
binding [7]: binds
binding [8]: no binding
binding [9]: binds
